Test results as given in the supplement of paper PMC10849652.
The other results are listed elsewhere or left out.

Protein sequences, listed by entry. Tags and fused reporters are not part of them. Lines headed by an entry give the natural chain unless they say otherwise; changes in a name come on top.
UniProt O43505: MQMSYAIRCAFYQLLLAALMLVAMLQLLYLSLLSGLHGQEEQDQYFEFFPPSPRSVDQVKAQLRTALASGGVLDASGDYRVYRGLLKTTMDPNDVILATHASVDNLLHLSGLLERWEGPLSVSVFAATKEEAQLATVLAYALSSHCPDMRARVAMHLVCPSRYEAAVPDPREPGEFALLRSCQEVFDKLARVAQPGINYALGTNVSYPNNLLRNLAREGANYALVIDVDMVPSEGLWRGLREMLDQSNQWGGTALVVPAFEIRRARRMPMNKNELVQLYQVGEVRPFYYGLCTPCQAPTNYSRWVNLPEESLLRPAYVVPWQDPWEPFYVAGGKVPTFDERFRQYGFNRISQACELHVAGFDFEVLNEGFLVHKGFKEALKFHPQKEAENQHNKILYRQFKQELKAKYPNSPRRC
UniProt P25440, whole entry, looked up: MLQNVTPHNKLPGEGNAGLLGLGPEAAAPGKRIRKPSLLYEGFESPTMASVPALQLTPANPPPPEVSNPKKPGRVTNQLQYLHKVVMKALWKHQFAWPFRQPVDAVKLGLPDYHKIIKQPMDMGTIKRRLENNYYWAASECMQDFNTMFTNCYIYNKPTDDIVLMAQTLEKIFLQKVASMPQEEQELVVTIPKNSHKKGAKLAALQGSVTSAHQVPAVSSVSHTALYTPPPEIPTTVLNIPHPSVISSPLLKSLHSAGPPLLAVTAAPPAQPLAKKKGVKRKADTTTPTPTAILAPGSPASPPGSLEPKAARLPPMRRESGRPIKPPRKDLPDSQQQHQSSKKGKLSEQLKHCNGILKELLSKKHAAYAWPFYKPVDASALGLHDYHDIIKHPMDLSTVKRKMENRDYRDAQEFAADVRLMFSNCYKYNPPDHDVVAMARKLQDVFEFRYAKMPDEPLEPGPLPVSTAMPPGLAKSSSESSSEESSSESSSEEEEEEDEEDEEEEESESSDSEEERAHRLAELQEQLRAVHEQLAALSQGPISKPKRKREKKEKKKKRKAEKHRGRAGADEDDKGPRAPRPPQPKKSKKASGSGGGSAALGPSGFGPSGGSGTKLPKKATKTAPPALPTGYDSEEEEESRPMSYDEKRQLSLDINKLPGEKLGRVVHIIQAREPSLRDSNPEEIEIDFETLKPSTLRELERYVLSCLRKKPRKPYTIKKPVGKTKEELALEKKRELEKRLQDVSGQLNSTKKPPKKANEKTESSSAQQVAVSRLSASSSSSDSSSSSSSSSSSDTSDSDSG
UniProt Q9H8M2, whole entry, looked up: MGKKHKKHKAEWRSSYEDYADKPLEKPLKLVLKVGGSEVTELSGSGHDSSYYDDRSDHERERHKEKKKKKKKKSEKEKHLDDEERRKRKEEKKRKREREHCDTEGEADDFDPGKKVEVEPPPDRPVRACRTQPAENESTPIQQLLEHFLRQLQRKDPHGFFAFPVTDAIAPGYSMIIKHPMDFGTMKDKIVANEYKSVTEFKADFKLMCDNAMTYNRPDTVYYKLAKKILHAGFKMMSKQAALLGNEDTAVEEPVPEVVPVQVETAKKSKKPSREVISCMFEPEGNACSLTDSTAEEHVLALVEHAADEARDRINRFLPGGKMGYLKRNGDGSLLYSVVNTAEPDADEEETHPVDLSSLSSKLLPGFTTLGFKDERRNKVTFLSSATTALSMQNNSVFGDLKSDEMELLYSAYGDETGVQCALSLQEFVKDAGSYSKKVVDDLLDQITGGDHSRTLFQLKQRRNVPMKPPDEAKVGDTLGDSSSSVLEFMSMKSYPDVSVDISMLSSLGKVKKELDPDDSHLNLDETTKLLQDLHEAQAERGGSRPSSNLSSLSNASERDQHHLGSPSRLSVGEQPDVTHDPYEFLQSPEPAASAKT
UniProt Q9NZM4: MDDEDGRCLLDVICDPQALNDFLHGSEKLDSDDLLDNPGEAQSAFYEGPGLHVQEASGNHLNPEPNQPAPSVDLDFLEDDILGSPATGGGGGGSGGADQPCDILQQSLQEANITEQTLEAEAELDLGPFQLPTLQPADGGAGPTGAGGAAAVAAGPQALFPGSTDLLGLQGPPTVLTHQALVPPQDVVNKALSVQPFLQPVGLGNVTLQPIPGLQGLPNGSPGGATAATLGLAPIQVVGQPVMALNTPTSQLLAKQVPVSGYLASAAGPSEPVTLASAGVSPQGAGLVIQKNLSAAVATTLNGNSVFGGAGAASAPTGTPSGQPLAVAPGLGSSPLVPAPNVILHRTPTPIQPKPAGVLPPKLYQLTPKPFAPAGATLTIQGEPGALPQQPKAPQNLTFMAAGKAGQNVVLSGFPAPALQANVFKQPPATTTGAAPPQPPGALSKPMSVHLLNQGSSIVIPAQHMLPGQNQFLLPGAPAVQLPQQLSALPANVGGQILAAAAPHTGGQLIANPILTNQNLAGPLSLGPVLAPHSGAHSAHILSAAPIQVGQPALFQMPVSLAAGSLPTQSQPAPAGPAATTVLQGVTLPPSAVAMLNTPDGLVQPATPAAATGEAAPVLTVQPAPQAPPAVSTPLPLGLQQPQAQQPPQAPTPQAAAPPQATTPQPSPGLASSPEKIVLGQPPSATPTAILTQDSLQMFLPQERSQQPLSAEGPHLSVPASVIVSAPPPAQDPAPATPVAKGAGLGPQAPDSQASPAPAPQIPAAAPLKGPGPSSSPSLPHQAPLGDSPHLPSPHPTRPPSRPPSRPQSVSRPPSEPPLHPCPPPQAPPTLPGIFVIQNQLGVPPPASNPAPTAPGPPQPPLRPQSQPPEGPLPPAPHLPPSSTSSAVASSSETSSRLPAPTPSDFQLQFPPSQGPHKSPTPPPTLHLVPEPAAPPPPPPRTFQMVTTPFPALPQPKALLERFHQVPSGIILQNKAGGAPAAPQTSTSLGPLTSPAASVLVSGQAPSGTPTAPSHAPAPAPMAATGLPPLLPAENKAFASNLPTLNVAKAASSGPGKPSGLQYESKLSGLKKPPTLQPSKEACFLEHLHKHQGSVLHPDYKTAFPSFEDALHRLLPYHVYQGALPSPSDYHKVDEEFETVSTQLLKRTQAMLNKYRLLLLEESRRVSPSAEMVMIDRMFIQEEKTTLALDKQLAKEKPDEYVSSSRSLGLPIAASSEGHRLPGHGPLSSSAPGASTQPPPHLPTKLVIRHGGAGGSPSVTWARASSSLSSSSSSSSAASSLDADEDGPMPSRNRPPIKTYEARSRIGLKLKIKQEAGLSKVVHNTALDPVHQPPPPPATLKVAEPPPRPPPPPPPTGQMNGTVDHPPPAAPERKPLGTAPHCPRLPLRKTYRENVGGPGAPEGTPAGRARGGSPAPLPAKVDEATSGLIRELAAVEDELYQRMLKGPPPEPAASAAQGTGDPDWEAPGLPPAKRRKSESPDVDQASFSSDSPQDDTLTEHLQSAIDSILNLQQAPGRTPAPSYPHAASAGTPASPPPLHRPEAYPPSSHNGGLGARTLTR
UniProt Q96DR5: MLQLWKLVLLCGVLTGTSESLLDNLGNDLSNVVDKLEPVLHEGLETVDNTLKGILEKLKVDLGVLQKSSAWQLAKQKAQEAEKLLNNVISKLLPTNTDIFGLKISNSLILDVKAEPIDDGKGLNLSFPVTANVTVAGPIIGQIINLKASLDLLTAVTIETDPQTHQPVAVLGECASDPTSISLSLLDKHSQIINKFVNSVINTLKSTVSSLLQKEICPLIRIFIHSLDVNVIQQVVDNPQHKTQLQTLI
UniProt Q8IXM2, whole entry, looked up: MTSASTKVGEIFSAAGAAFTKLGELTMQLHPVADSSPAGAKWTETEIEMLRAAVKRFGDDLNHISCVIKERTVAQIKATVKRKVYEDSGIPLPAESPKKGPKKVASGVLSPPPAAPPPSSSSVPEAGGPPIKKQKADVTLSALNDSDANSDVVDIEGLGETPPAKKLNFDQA
UniProt Q06187: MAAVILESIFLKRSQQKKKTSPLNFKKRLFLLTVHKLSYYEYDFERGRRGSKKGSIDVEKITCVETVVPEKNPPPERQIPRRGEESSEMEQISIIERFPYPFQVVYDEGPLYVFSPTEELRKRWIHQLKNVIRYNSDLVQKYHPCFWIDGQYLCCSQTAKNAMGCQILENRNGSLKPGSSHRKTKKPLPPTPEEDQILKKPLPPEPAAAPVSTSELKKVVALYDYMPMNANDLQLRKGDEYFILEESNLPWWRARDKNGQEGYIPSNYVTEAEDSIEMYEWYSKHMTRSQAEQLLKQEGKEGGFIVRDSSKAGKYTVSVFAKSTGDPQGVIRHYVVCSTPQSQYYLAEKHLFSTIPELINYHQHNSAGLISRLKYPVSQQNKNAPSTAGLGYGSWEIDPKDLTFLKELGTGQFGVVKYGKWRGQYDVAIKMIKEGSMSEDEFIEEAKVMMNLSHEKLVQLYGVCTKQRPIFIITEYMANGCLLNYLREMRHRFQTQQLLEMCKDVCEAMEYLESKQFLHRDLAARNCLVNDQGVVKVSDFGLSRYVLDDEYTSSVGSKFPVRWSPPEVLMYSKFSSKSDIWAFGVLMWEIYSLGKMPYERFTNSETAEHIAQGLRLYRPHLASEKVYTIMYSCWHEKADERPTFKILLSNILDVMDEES
UniProt Q8IWZ6: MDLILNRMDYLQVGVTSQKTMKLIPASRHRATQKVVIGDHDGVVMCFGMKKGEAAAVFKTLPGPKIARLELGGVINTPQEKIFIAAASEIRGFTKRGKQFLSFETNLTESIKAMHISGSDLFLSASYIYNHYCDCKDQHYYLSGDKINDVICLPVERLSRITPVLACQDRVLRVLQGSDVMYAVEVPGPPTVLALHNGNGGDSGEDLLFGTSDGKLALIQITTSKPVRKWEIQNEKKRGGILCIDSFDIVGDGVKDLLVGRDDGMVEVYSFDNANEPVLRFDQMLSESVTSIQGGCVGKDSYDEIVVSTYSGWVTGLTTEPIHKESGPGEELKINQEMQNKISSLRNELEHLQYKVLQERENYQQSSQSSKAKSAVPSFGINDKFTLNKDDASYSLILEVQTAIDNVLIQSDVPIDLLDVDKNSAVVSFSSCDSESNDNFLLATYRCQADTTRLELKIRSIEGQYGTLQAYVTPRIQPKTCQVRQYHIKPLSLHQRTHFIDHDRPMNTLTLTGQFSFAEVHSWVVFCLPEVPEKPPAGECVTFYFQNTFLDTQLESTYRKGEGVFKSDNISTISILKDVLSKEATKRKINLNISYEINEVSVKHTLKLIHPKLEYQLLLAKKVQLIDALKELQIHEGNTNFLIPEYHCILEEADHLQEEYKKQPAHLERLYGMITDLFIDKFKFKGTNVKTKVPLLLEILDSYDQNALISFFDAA
UniProt Q9BUT1: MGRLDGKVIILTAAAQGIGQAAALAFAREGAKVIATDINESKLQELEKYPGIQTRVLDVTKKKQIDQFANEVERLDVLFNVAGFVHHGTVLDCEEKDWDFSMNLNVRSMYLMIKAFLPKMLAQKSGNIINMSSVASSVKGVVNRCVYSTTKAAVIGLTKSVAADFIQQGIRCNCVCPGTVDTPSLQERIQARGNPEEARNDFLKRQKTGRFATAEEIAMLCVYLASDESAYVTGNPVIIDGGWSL
UniProt Q96G97: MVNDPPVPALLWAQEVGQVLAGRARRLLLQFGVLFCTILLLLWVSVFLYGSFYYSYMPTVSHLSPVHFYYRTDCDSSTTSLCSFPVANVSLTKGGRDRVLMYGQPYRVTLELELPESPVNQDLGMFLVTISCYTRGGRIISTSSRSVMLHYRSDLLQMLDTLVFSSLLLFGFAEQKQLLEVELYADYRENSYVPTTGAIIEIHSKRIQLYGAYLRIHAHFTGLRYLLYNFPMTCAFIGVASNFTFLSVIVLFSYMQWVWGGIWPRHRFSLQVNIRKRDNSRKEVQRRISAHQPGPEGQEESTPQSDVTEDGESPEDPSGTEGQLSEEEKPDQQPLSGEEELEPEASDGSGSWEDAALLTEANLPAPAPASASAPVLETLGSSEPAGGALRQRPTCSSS

Tests used:
Assay in all cases: log2 fold change, soluble protein after heating vs DMSO (PISA); higher = thermal stabilisation; K562 lysate, 10 uM; active = over 0.2 and 3.5 SD of the protein, either way, in both replicates (recomputed)
erlotinib = compound: C#Cc1cccc(Nc2ncnc3cc(OCCOC)c(OCCOC)cc23)c1 [erlotinib]
Procedure, shortened: (§1)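 Dounce homogenisation of K562 pellets in PBS pH 7.4 with 1 mM MgCl2 produced a crude extract, used at 1 mg/mL protein. Exposure to 10 μM compound lasted 30 min, and aliquots were then heated for 3 min across 48°C-58°C, pooled and brought to 0.5% NP-40 at 4°C. The supernatant after 21,000xg for 90 min was quantified by TMTpro 16plex LC-MS/MS with channel sums equalised. Duplicate values are given as log-two fold change in thermal stability relative to solvent controls.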

[1] = compound: C1=CC(=CC=C1C2=NC3=C(N2)C=C(C=C3)C(=O)N)OC4=CC=C(C=C4)Cl
Procedure, shortened: as §1

[2] = compound: C1=CC2=NC=CN=C2C=C1/C=C/3\C(=O)NC(=O)S3
Procedure, shortened: as §1

[3] = compound: C1=CC=C(C=C1)C2=NC(=C(N2)C3=CC=NC=C3)C4=CC(=C(C=C4)Cl)O
Procedure, shortened: as §1

IRAK-1-4 Inhibitor I = compound: C1COCCN1CCN2C3=CC=CC=C3N=C2NC(=O)C4=CC(=CC=C4)[N+](=O)[O-] [IRAK-1-4 Inhibitor I]
Procedure, shortened: as §1

ibrutinib = compound: C=CC(=O)N1CCC[C@@H](n2nc(-c3ccc(Oc4ccccc4)cc3)c3c(N)ncnc32)C1 [ibrutinib]
Procedure, shortened: as §1

ralimetinib = compound: CC(C)(C)Cn1c(N)nc2ccc(-c3[nH]c(C(C)(C)C)nc3-c3ccc(F)cc3)nc21 [ralimetinib]
Procedure, shortened: as §1

[4] = compound: CC(C)(O)CC(=O)NCCn1ccc2ncnc(Nc3ccc(Oc4cccc(C(F)(F)F)c4)c(Cl)c3)c21
Procedure, shortened: as §1

[5] = compound: CC(C)C1=C2N=C(C=C(N2N=C1)NCC3=CC=CC=C3)NCCCCCCN
Procedure, shortened: as §1

[6] = compound: CC1=C(C(CC(=O)N1)C2=CC=C(C=C2)C(F)(F)F)C(=O)NC3=C(C=C4C(=C3)C=NN4)F
Procedure, shortened: as §1

[7] = compound: CC1=C(C2=C(C=C1)C(=O)C3=CC=CC=C3N2CCCN)C
Procedure, shortened: as §1

[8] = compound: CC1=C(C=C(C=C1)NC(=O)C2=CC(=CC=C2)C(C)(C)C#N)NC3=CC4=C(C=C3)N=CN(C4=O)C
Procedure, shortened: as §1

[9] = compound: CC1=C(C=C(C=C1)NC(=O)C2=CC(=CC=C2)N(C)C)NC(=O)C3=CC=C(C=C3)O
Procedure, shortened: as §1

[10] = compound: C1=CC2=C(C=CC(=C2)/C=C\3/C(=O)NC(=NCC4=CC=CS4)S3)N=C1
Procedure, shortened: as §1

[11] = compound: C1=CC=C2C(=C1)C3=NNC4=CC=CC(=C43)C2=O
Procedure, shortened: as §1

[12] = compound: C1CCN(C1)C(=O)NC2=CC=CC(=C2)NC3=NC=C(C(=N3)NCCC4=CN=CN4)Br
Procedure, shortened: as §1

[13] = compound: C1CN(CCC1(CC2=CC=C(C=C2)Cl)N)C3=NC=NC4=C3C=CN4
Procedure, shortened: as §1

[14] = compound: CC(=O)c1cnc2ccc(-c3cc(Cl)c(O)c(Cl)c3)nc2c1N[C@H]1CC[C@H](CN(C)C)CC1
Procedure, shortened: as §1

[15] = compound: CC1=CC=C(C=C1)SC2=C3C=C(SC3=CN=C2)C(=O)N
Procedure, shortened: as §1

[16] = compound: C/C(=N\NC(=O)C1=CC(=CC=C1)S(=O)(=O)N2CCOCC2)/C3=C(C=CC(=C3)Cl)O
Procedure, shortened: as §1

Measured: log2 fold change

B4GAT1 (UniProt O43505)
inactive: erlotinib 0.063 | [1] 0.098 | [2] 0.175 | [3] -0.087 | IRAK-1-4 Inhibitor I 0.386 | ibrutinib 0.241 | ralimetinib 0.18 | [4] 0.384 | [5] -0.13 | [6] -0.173 | [7] -0.212 | [8] -0.05 | [9] 0.142

BRD2 isoform 2 (UniProt P25440)
inactive: erlotinib -0.039 | [1] 0.02 | [10] 0.036 | [2] 0 | [3] 0.109 | [11] -0.014 | [12] -0.134 | [13] -0.114 | IRAK-1-4 Inhibitor I 0.003 | ibrutinib 0.074 | [14] -0.041 | ralimetinib -0.056 | [4] 0.021 | [5] 0.26 | [6] -0.025 | [7] 0.008 | [8] 0.056 | [9] 0.049 | [15] 0.105

BCL7C (UniProt Q8WUZ0)
inactive: erlotinib 0.073 | [1] 0.006 | [2] 0.02 | [3] -0.155 | [12] 0.048 | [13] -0.046 | IRAK-1-4 Inhibitor I 0.061 | ibrutinib -0.037 | [14] 0.051 | ralimetinib 0.239 | [4] -0.018 | [5] -0.094 | [7] 0.085 | [8] 0.066 | [9] 0.06 | [15] -0.073

BRD9 (UniProt Q9H8M2)
inactive: erlotinib 0.035 | [1] -0.13 | [3] -0.099 | [12] -0.103 | [13] 0.141 | IRAK-1-4 Inhibitor I 0.054 | ralimetinib 0.009 | [4] 0.041 | [5] -0.064 | [6] 0.036 | [9] -0.002

BICRA (UniProt Q9NZM4)
inactive: erlotinib 0.204 | [1] 0.231 | [2] 0.12 | [3] 0.065 | IRAK-1-4 Inhibitor I 0.115 | ibrutinib -0.053 | [14] -0.093 | ralimetinib -0.138 | [4] -0.271 | [5] 0.102 | [7] -0.168 | [8] -0.012 | [9] -0.003 | [15] -0.156

BIRC6, A0A3B3IUB9
inactive: erlotinib 0.024 | [16] 0.069 | [1] -0.052 | [10] 0.002 | [3] -0.131 | [11] 0.051 | [12] -0.058 | [13] 0.04 | IRAK-1-4 Inhibitor I 0.13 | [14] -0.077 | ralimetinib -0.089 | [4] -0.4 | [5] 0.154 | [7] 0.034 | [8] -0.01 | [9] 0.014 | [15] 0.12

BPIFA2 (UniProt Q96DR5)
inactive: erlotinib -0.404 | [1] -0.039 | [2] -0.303 | [12] -0.058 | [13] -0.911 | ibrutinib -0.056 | [5] -0.079 | [6] 2.06

BAP18 isoform 3 (UniProt Q8IXM2)
inactive: erlotinib -0.266 | [16] -0.082 | [1] -0.026 | [10] 0.06 | [11] 0.045 | [12] -0.019 | [13] 0.132 | [14] 0.124 | [5] 0.305 | [6] 0.081 | [15] -0.157

BTK isoform 2 (UniProt Q06187)
inactive: erlotinib 0.002 | [16] 0.017 | [1] -0.046 | [10] 0.031 | [2] 0.025 | [3] -0.005 | [11] -0.05 | [12] 0.077 | [13] -0.052 | IRAK-1-4 Inhibitor I -0.017 | [14] 0.012 | ralimetinib 0.014 | [4] 0.02 | [5] -0.01 | [6] 0.005 | [7] -0.032 | [8] 0.055 | [9] 0.042 | [15] -0.011

B4GALT7 (UniProt Q9UBV7)
inactive: erlotinib 0.16 | [16] -0.091 | [1] 0.108 | [10] 0.074 | [11] -0.151 | [12] -0.075 | [13] 0.075 | [5] 0.011 | [8] 0.015

BBS7 (UniProt Q8IWZ6)
inactive: erlotinib -0.095 | [16] 0.146 | [1] -0.014 | [10] -0.034 | [3] 0.057 | [11] -0.098 | [12] -0.068 | [13] 0.082 | IRAK-1-4 Inhibitor I 0.022 | ralimetinib 0.047 | [4] 0.015 | [5] -0.021 | [6] 0.077 | [7] 0.182 | [8] 0.181 | [9] -0.013

BAZ2A (UniProt Q9UIF9)
inactive: erlotinib -0.054 | [1] 0.081 | [3] 0.007 | [12] -0.082 | [13] -0.096 | IRAK-1-4 Inhibitor I -0.044 | [14] 0.009 | ralimetinib -0.013 | [4] 0.01 | [5] -0.013 | [6] -0.066 | [8] 0.004 | [9] 0.111 | [15] 0.378

BDH2 (UniProt Q9BUT1)
inactive: erlotinib -0.094 | [1] 0.102 | [2] -0.068 | [3] -0.074 | [12] 0.028 | [13] -0.25 | IRAK-1-4 Inhibitor I 0.003 | ibrutinib -0.001 | [14] 0.058 | ralimetinib 0.056 | [4] 0.031 | [5] 0.067 | [6] -0.039 | [7] -0.008 | [8] 0.043 | [9] -0.096 | [15] 0.055

BSCL2 isoform 4 (UniProt Q96G97)
inactive: erlotinib 0.014 | [1] -0.093 | [3] -0.166 | IRAK-1-4 Inhibitor I 0 | [14] -0.213 | ralimetinib 0.167 | [4] 0.043 | [5] 0.027 | [6] -0.091 | [8] 0.015 | [9] -0.124 | [15] 0.023

Fetched one by one from above, 2 records:
B4GALT7 (UniProt Q9UBV7)
inactive: erlotinib 0.16 | [16] -0.091 | [1] 0.108 | [10] 0.074 | [11] -0.151 | [12] -0.075 | [13] 0.075 | [5] 0.011 | [8] 0.015

BSCL2 isoform 4 (UniProt Q96G97)
inactive: erlotinib 0.014 | [1] -0.093 | [3] -0.166 | IRAK-1-4 Inhibitor I 0 | [14] -0.213 | ralimetinib 0.167 | [4] 0.043 | [5] 0.027 | [6] -0.091 | [8] 0.015 | [9] -0.124 | [15] 0.023
